Experimental data reported in PubChem BioAssay AID504834 (National Center for Advancing Translational Sciences (NCATS), 2011).
Out of some 320,000 compounds screened, about 22,000 (6.9%) were called active. This list was built around the results that the source calls inconclusive (neither active nor inactive); the mix of calls is not that of the screen. The call rests on the fitted dose curve; in most records, active means well fitted inhibition curve with a large enough effect; inconclusive means small, poorly fitted or top-dose-only effect, or another doubt; inactive means no such curve, though single readings can be large or run the other way. Potencies beside an inconclusive call are fits to weak or partial responses and may not hold up.

Test: Primary qHTS for delayed death inhibitors of the malarial parasite plastid, 96 hour incubation
Details: P. falciparum luciferase reporter growth; series mostly up to 28.7 µM
Procedure, shortened: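 Erythrocytes infected with luciferase-expressing P. falciparum were dispensed at 2% hematocrit and 0.05% parasitemia (final), then incubated with compounds 96 hours at 37 C in 5% CO2. Luminescence after detection reagent addition reported growth.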
Potency means the concentration at half of the fitted maximal effect.

| Structure (SMILES) | Potency |
| --- | --- |
| COc1cc(C2NC(=O)NC(C)=C2C(=O)Nc2cccc(C)c2C)cc(OC)c1OC (stereo not drawn) | inconclusive: 0.104 µM [inhibitor, full curve, poor fit] |
| COc1ccc([C@H]2CC(=O)C=C(c3ccc(CO)cc3)C2)cc1 | inconclusive: 16.5 µM [inhibitor, single point] |
| O=C(Nc1ccc(Cl)cc1)OCCn1nnnc1C(c1ccccc1Cl)N1CCOCC1 (stereo not drawn) | inconclusive: 4.65 µM [inhibitor, partial curve] |
| O=C(CN1C(=O)NC2(CCOc3ccccc32)C1=O)c1ccc(F)cc1 (stereo not drawn) | inconclusive: 11.7 µM [inhibitor, single point] |
| COC(=O)c1cc(C(=O)N2CCc3ccccc32)cc([N+](=O)[O-])c1 | inactive |
| COc1cc(C(CCN2CCOCC2)c2c(OC)cc(OC)c3c(C)cc(=O)oc23)cc(OC)c1OC (stereo not drawn) | inconclusive: 18.5 µM [inhibitor, single point] |
| CCCOc1c(Cl)cc(C(=O)Nc2ccc3c(c2)OCO3)cc1OCC | inconclusive: 13.1 µM [inhibitor, partial curve, poor fit] |
| COC(=O)C1=C(C)NC2=C(C(=O)CCC2)C1c1ccc(-c2ccsc2C(=O)OC)o1 (stereo not drawn) | active: 11.7 µM |
| CCOCCCNC(=S)N1CCN(c2nc(-c3ccc(F)cc3)cs2)CC1 | inconclusive: 10.4 µM [inhibitor, single point] |
| O=C(CC1SC(N2CCCC2)=NC1=O)Nc1ccc(C(=O)NCc2ccc(F)cc2)cc1 (stereo not drawn) | inconclusive: 18.5 µM [inhibitor, single point] |
| CCC(C)[C@H](NC(=O)N1CCn2c1nc1ccccc12)C(=O)NCc1ccc(OC)cc1 (stereo partly drawn) | inconclusive: 18.5 µM [inhibitor, single point] |
| COc1ccccc1CNC(=O)COc1ccccc1C | inconclusive: 14.7 µM [inhibitor, single point] |
| Cc1cccc(NC(=O)[C@H](Cc2ccccc2)NC(=O)OCc2ccccc2)c1 | inconclusive: 10.4 µM [inhibitor, partial curve] |
| CCOC(=O)/C(C(N)=NC)=C(\O)c1ccccc1 | inconclusive: 9.28 µM [inhibitor, single point] |
| CCNC(=S)NNC(=O)c1c(Cl)c(C)nn1C | inactive |
| COc1ccc(CN2CCCCCC2)cc1 | inconclusive: 18.5 µM [inhibitor, single point] |
| CC(C)COc1ccc(C(=O)NNC(=O)c2ccc(=O)[nH]c2)cc1 | inactive |
| CCn1ccnc1CNC(=O)c1ccc(OC2CCN(C(=O)COC)CC2)cc1 | active: 5.22 µM |

Given field by field: 2 of the compounds above
COc1ccc([C@H]2CC(=O)C=C(c3ccc(CO)cc3)C2)cc1
  Potency: inconclusive: 16.5 µM [inhibitor, single point]
COc1ccccc1CNC(=O)COc1ccccc1C
  Potency: inconclusive: 14.7 µM [inhibitor, single point]
